Results published in the supplement of paper PMC9233669.
This sample is rich in variants without activity.

What was measured:
[1] = tested on: biotinyl-Met-oxazolone; assay: self-aminoacylation, catalytic enhancement (BMO) (fold over background); higher = more active; k-Seq, kA / k0A0; sequences stand for … in GGGAAUGGAUCCACAUCUACGAAUUC…UUCACUGCAGACUUGACGAAGCUG
Summary of the method: (§1)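 The uncatalyzed rate is the low-activity peak of a bimodal Gaussian fit, and catalytic enhancement is median kA divided by it. The kA values came from pseudo-first-order fits, with 1000 bootstraps, of per-sequence fraction reacted measured by streptavidin capture, triplicate qPCR and Illumina sequencing. Mutagenized RNA pools with a 21-nt variable region (0.43 μM) were reacted with each biotinyl-aminoacyl-oxazolone at 2–1250 μM in 50 μL HEPES/NaCl/KCl/MgCl2/CaCl2 buffer with 5% acetonitrile, pH 6.9–7.0, for 90 minutes at room temperature.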

[2] = tested on: biotinyl-Ile-oxazolone; assay: self-aminoacylation, catalytic enhancement (BIO) (fold over background); higher = more active; k-Seq, kA / k0A0; sequences stand for … in GGGAAUGGAUCCACAUCUACGAAUUC…UUCACUGCAGACUUGACGAAGCUG
Summary of the method: as §1

[3] = tested on: biotinyl-Leu-oxazolone; assay: self-aminoacylation, catalytic enhancement (BLO) (fold over background); higher = more active; k-Seq, kA / k0A0; sequences stand for … in GGGAAUGGAUCCACAUCUACGAAUUC…UUCACUGCAGACUUGACGAAGCUG
Summary of the method: as §1

[4] = tested on: biotinyl-Val-oxazolone; assay: self-aminoacylation, catalytic enhancement (BVO) (fold over background); higher = more active; k-Seq, kA / k0A0; sequences stand for … in GGGAAUGGAUCCACAUCUACGAAUUC…UUCACUGCAGACUUGACGAAGCUG
Summary of the method: as §1

Sequence	self-aminoacylation [1]	self-aminoacylation [2]	self-aminoacylation [3]	self-aminoacylation [4]
AUGUUUGCUAAUAGUCGUAAG [Fam3.1 aminoacylation ribozyme variant]	1.11	1.11	0.831	1.11
AUUAACCUAGGUAAUCGGGUG [Fam2.2 aminoacylation ribozyme variant]	2.62	1.78	2.3	1.66
AUUAACGUAGGUCAUCGGGUG [Fam2.2 aminoacylation ribozyme variant]	4.05	2.52	3.84	3.05
AUUACCCUGGACAUUGAGUGA [Fam2.1 aminoacylation ribozyme variant]	11.3	4.56	10.4	4.58
AUUACCCUGGCCGUCGAGUGA [Fam2.1 aminoacylation ribozyme variant]	1.38	1.34	1.24	1.78
AUUACCCUGGUCAUUGAGUGG [Fam2.1 aminoacylation ribozyme variant]	2.54	1.39	2.66	1.76
AUUACCCUGGUCGUCAAGUGA [Fam2.1 aminoacylation ribozyme variant]	0.773	0.713	0.821	0.836
AUUAUCCUGGUCAUCGAGUAA [Fam2.1 aminoacylation ribozyme variant]	2.03	1.43	1.85	1.39
AUUCACCUAGGUCAUCGCGGG [Fam2.2 aminoacylation ribozyme variant]	3.25	2.97	4.05	2.47
AUUCACCUAGGUCAUUGGGUC [Fam2.2 aminoacylation ribozyme variant]	0.808	0.922	0.89	0.867
AUUCACCUAGGUGAUCGGGUG [Fam2.2 aminoacylation ribozyme variant]	2.81	2.52	3.27	2.62
AUUCACCUAGUUCAUCGGGUA [Fam2.2 aminoacylation ribozyme variant]	1.72	1.6	1.71	1.65
AUUUACCUAGCUCAUCGGGUG [Fam2.2 aminoacylation ribozyme variant]	2.16	2.01	2.58	2.4
CAACGUCAAACAAUCGGUCUG [Fam1A.1 aminoacylation ribozyme variant]	1.56	1.31	1.36	1.39
CAGUUUGCUAAUAGUCGUAAG [Fam3.1 aminoacylation ribozyme variant]	0.889	0.986	1.09	0.941
CCAAACUUCAACCAAUCGGUC [Fam1B.1 aminoacylation ribozyme variant]	1.25	1.29	1.69	1.17
CCACACGUCAACCAAUCGGUC [Fam1B.1 aminoacylation ribozyme variant]	1.07	1.09	1.17	1.47
CCACACUACAAGCGAUCGGUC [Fam1B.1 aminoacylation ribozyme variant]	0.977	1.09	1.24	1.29
CCACACUUCAAAAAAUCGGUC [Fam1B.1 aminoacylation ribozyme variant]	1.16	1.5	1.34	1.22
CCACACUUCAAACAAUCCGUC [Fam1B.1 aminoacylation ribozyme variant]	0.559	0.83	0.682	0.993
CCACACUUCAACCGAUCGGUC [Fam1B.1 aminoacylation ribozyme variant]	1.28	1.48	1.22	1.7

Sequence	self-aminoacylation [1]	self-aminoacylation [2]	self-aminoacylation [3]	self-aminoacylation [4]
CCACACUUCACGCAAUCGAUC [Fam1B.1 aminoacylation ribozyme variant]	0.55	0.568	0.514	0.606
CCACACUUCAGGUAAUCGGUC [Fam1B.1 aminoacylation ribozyme variant]	0.887	0.805	0.824	1.07
CCACACUUCCAGCAAUCGGGC [Fam1B.1 aminoacylation ribozyme variant]	1.72	2	1.74	2.32
CCACGCCUCAAGCAAUCGGUC [Fam1B.1 aminoacylation ribozyme variant]	0.802	0.798	0.948	1.37
CCACGCUUCAAGCAAUCGGUC [Fam1B.1 aminoacylation ribozyme variant]	1.37	1.2	2.11	1.54
CCACGCUUCAAGUAAUCGGUC [Fam1B.1 aminoacylation ribozyme variant]	1.03	0.905	1.29	0.911
CCACUUCAAAAAAUCGGUCUG [Fam1A.1 aminoacylation ribozyme variant]	1.05	1.55	1.61	1.13
CCCCACUUCAAGCCAUCGGUC [Fam1B.1 aminoacylation ribozyme variant]	2.87	2.33	2.63	2.82
CCUCUCUUCAAGCAAUCGGUC [Fam1B.1 aminoacylation ribozyme variant]	1.11	1.09	1.6	1.27
CGUCACUUCAAGCAAUCGGUC [Fam1B.1 aminoacylation ribozyme variant]	1.36	1.04	1.25	1.02
CUACCUCCAACAAUCGGUCUG [Fam1A.1 aminoacylation ribozyme variant]	0.709	0.73	1.1	0.791
CUACUGAAAACAAUCGGUCUG [Fam1A.1 aminoacylation ribozyme variant]	0.735	0.84	0.708	0.706
CUACUUCAAAAAAUCGGUCGG [Fam1A.1 aminoacylation ribozyme variant]	1.3	1.14	1.57	0.994
CUACUUCAAACAAUCAGUAUG [Fam1A.1 aminoacylation ribozyme variant]	0.891	0.847	0.777	0.819
CUACUUCAAACAAUCAGUCAG [Fam1A.1 aminoacylation ribozyme variant]	0.663	0.754	0.825	0.791
CUACUUCAAACAAUCGGUCCC [Fam1A.1 aminoacylation ribozyme variant]	0.979	0.834	1.29	0.771
CUACUUCAAACAAUCGGUCCU [Fam1A.1 aminoacylation ribozyme variant]	0.834	0.658	0.78	0.777
CUACUUCAAACCAUCGGUCAG [Fam1A.1 aminoacylation ribozyme variant]	0.609	0.67	0.488	0.771
CUACUUCAAAUAAUCGGUCUC [Fam1A.1 aminoacylation ribozyme variant]	0.69	0.682	0.747	0.838
CUACUUCAACCAAUCGGUAUG [Fam1A.1 aminoacylation ribozyme variant]	0.557	0.774	0.761	0.819
CUACUUCAACCAAUCGGUGUG [Fam1A.1 aminoacylation ribozyme variant]	1.27	1.08	1.46	1.16

Sequence	self-aminoacylation [1]	self-aminoacylation [2]	self-aminoacylation [3]	self-aminoacylation [4]
CUACUUCAAGAAAUCGGUCUG [Fam1A.1 aminoacylation ribozyme variant]	0.786	0.737	0.849	0.782
CUACUUCAAGCAAUCGCUCUG [Fam1A.1 aminoacylation ribozyme variant]	1.07	0.99	1.28	0.943
CUACUUCAAGUAAUCGGUCUG [Fam1A.1 aminoacylation ribozyme variant]	0.863	0.926	1.35	0.932
CUACUUCAAUCAAUCGGUCAG [Fam1A.1 aminoacylation ribozyme variant]	0.738	0.788	0.885	0.83
CUACUUCGAAGAAUCGGUCUG [Fam1A.1 aminoacylation ribozyme variant]	0.933	0.875	0.757	0.839
CUACUUGAGACAAUCGGUCUG [Fam1A.1 aminoacylation ribozyme variant]	0.94	0.884	0.962	1.01
CUAGUUCAAACAAUCGGUCAG [Fam1A.1 aminoacylation ribozyme variant]	0.731	0.714	0.692	0.753
CUAUUUCAAACAAUCAGUCUG [Fam1A.1 aminoacylation ribozyme variant]	0.721	0.795	0.72	0.852
CUGCUUCAAACAAUCGGGCUG [Fam1A.1 aminoacylation ribozyme variant]	2.66	2.2	3.18	2.33
CUGGUUCAAACAAUCGGUCUG [Fam1A.1 aminoacylation ribozyme variant]	1.02	1.01	1.23	0.971
CUUCACCUAGGUCAUCGGGUC [Fam2.2 aminoacylation ribozyme variant]	1.93	1.09	1.5	1.47
GCACACUUCUAGCAAUCGGUC [Fam1B.1 aminoacylation ribozyme variant]	0.936	1.2	0.999	1.22
GUACUUCAAACAAUCGGUAUG [Fam1A.1 aminoacylation ribozyme variant]	1.29	1.34	1.49	1.32
GUACUUCAAAUAAUCGGUCUG [Fam1A.1 aminoacylation ribozyme variant]	1.34	1.54	1.49	1.23
GUUCACCUAGGUCAUCGGUUG [Fam2.2 aminoacylation ribozyme variant]	1.09	1.17	1.38	1.11
UCAAACUUCAAGCAAUCGGUC [Fam1B.1 aminoacylation ribozyme variant]	1.05	1.17	1.45	1.19
UCACCCUUCAAGCAAUCGGUC [Fam1B.1 aminoacylation ribozyme variant]	0.946	1.03	0.934	1.15
UCAUACUUCAAGCAAUCGGUC [Fam1B.1 aminoacylation ribozyme variant]	0.995	1.18	1.19	1.02
UUACUUCAAACAAUCAGUCUG [Fam1A.1 aminoacylation ribozyme variant]	1.35	1.43	1.45	1.3
UUUCACCGAGGUCAUCGGGUG [Fam2.2 aminoacylation ribozyme variant]	7.19	4.52	6.07	5.17
